According to the supplement of paper PMC6078165:

How the values were obtained:
Test in all cases: relative JC-1 red fluorescence (viability) vs pre-drug, monoculture (fraction); higher = more viable cancer cells
Settings in all cases: coculture fibroblast: none (monoculture)
[1] = system: MDAMB436
Protocol: (§1)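 JC-1 labelled TNBC cells grown in monoculture (density kept equal with unlabelled cancer cells) in 384-well plates in FluoroBrite medium, treated with one of 42 anticancer drugs at 0.1, 1, 10 or 100 uM. JC-1 red fluorescence (mitochondrial integrity, surrogate of apoptotic death) was read by plate reader every 8 h for 72 h. Values are normalised to each well's pre-drug value, with background from alamethicin. The stock of one drug was tenfold lower, so its dose labels may be too high. Monoculture values are repeated alongside each fibroblast plate and are averaged here.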

[2] = system: MDAMB468
Protocol: as §1

[3] = system: BT20
Protocol: as §1

[4] = system: MDAMB231
Protocol: as §1

Cc1c2oc3c(C)ccc(C(=O)N[C@@H]4C(=O)N[C@H](C(C)C)C(=O)N5CCC[C@H]5C(=O)N(C)CC(=O)N(C)[C@@H](C(C)C)C(=O)O[C@@H]4C)c3nc-2c(C(=O)N[C@@H]2C(=O)N[C@H](C(C)C)C(=O)N3CCC[C@H]3C(=O)N(C)CC(=O)N(C)[C@@H](C(C)C)C(=O)O[C@@H]2C)c(N)c1=O [Dactinomycin] (I: T[dV]P[Sar][NMeV] / II: T[dV]P[Sar][NMeV]; ester I:1-I:C, II:1-II:C; linker I:N-II:N via Actinocin(9to1))
relative JC-1 red fluorescence
Settings | 8 h | 16 h | 24 h | 32 h | 40 h | 48 h | 56 h | 64 h | 72 h
[1], 0.1 µM | 0.847 | 0.874 | 0.947 | 0.966 | 0.871 | 0.8551 | 0.749 | 0.854 | 0.922
[1], 1 µM | 0.8182 | 0.783 | 0.804 | 0.769 | 0.778 | 0.79 | 0.789 | 0.8 | 0.817
[1], 10 µM | 0.7981 | 0.841 | 0.879 | 0.862 | 0.89 | 0.905 | 0.925 | 0.841 | 0.806
[1], 100 µM | 0.778 | 0.7323 | 0.7241 | 0.67702 | 0.657 | 0.66 | 0.634 | 0.635 | 0.638
[2], 0.1 µM | 0.7987 | 0.7712 | 0.78 | 0.745 | 0.758 | 0.803 | 0.807 | 0.806 | 0.803
[2], 1 µM | 0.778 | 0.568 | 0.471 | 0.388 | 0.35 | 0.345 | 0.313 | 0.304 | 0.305
[2], 10 µM | 0.675 | 0.5363 | 0.477 | 0.415 | 0.375 | 0.381 | 0.359 | 0.361 | 0.363
[2], 100 µM | 0.714 | 0.515 | 0.46 | 0.388 | 0.335 | 0.332 | 0.306 | 0.301 | 0.289
[3], 0.1 µM | 0.929 | 0.893 | 0.883 | 0.818 | 0.786 | 0.787 | 0.772 | 0.7833 | 0.7749
[3], 1 µM | 0.9112 | 0.841 | 0.857 | 0.782 | 0.766 | 0.775 | 0.754 | 0.769 | 0.773
[3], 10 µM | 0.891 | 0.823 | 0.8444 | 0.744 | 0.701 | 0.7083 | 0.694 | 0.712 | 0.721
[3], 100 µM | 0.848 | 0.6976 | 0.637 | 0.534 | 0.496 | 0.492 | 0.472 | 0.475 | 0.463
[4], 0.1 µM | 0.765 | 0.755 | 0.857 | 0.768 | 0.741 | 0.756 | 0.765 | 0.834 | 0.856
[4], 1 µM | 0.671 | 0.612 | 0.626 | 0.601 | 0.573 | 0.576 | 0.569 | 0.622 | 0.636
[4], 10 µM | 0.761 | 0.721 | 0.79 | 0.763 | 0.751 | 0.77 | 0.812 | 0.804 | 0.79373
[4], 100 µM | 0.667 | 0.606 | 0.536 | 0.518 | 0.465 | 0.428 | 0.409 | 0.426 | 0.417

Values are relative to the signal before dosing, not to a vehicle control; the signal also falls without drug.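 Cells used are triple-negative breast cancer lines, either basal-like or mesenchymal-like, grown in the absence of fibroblasts. Lower red signal means mitochondrial integrity is lost, a surrogate for apoptosis.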 Numbered stars: 1 amine (or outer) side, 2 acyl side, 3 side chain; on linkers, the order of the positions; unused ones are H or OH. Bridge positions count the residues as written; N and C are the ends. Square brackets hold non-standard residues; d marks the D form. Peptide text beside a SMILES is read from it. I, II: the chains in the order shown. Actinocin(9to1) = Cc1c2oc3c(C)ccc(C(=O)[*:1])c3nc-2c(C(=O)[*:2])c(N)c1=O; NMeV = CN[C@H](C(=O)O)C(C)C; Sar = CNCC(=O)O
